Source: PubChem BioAssay AID1347426 (Functional Genomics Laboratory (NCATS/FGL), 2020)
Among all 31,000 sequences or so, about 1,400 (4.5%) were called active.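 How the source made its calls: active means median seed-adjusted z-score above 1 or below -1; inactive means the rest.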 The list shows a part of the results.

Assay: Novel Modifiers of Survival Motor Neuron (SMN) Protein: Gene Identification via Genome-wide siRNA Screen;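 further: luminescence tracks full-length SMN protein made from the SMN2 reporter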
Settings: HEK293T SMN2-luciferase reporter, siRNA knockdown, 72 h; actives lie on both sides
How it was run: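 Each of three siRNAs per gene is reverse-transfected (1 pmol) into reporter HEK293T cells whose luciferase output tracks SMN protein level. After 72 h culture, ONE-Glo luminescence is control-normalized, log10-transformed and MAD-standardized; Common Seed Analysis deprioritizes seed-driven hits.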
With UGUUUUCCGUGAUGAGUGATT against CIB3 the median seed-adjusted z-score was inactive: 0.234.
In the case of GCAGAUGCCUUCUUCGUUATT against ABCG2, the median seed-adjusted z-score is reported as inactive: 0.
In the case of GGAAGAAGGUAUUCCGUAUTT against CHD5, the median seed-adjusted z-score is reported as inactive: -0.195.
For CUUCGACAGUACUUCCGGATT against PPP2R1A, the median seed-adjusted z-score was inactive: 0.973.
In the case of CGAAUUUCCUAGUAAACCATT against TFAP2C, the median seed-adjusted z-score is reported as active: 1.28.
In the case of CGAUGUUGAAGUUACACCATT against ATP13A4, the median seed-adjusted z-score is reported as active: -1.09.
For GGAAACGAUUUAUCUAGAATT against ITGB8, the median seed-adjusted z-score was inactive: -0.0936.
With GUAAUCGAGAUGUUACAAATT against PIK3CG the median seed-adjusted z-score was inactive: 0.576.
For GCUGGUACGUGACAAUGCATT against KIF5A, the median seed-adjusted z-score was inactive: -0.348.
With GGACCGCUACUCUGAGUAUTT against KCNH6 the median seed-adjusted z-score was inactive: 0.424.
In the case of CCCUCGCUAUGACAGGAAATT against CNGB1, the median seed-adjusted z-score is reported as inactive: -0.627.
For GAAGAUGCCUUGAUUGAAATT against ANXA3, the median seed-adjusted z-score was inactive: -0.156.
For CCUUUCUACUUAUUGAGUUTT against MFSD5, the median seed-adjusted z-score was inactive: 0.205.
In the case of GGAUAGAGGAAAAUGGAUATT against FGF10, the median seed-adjusted z-score is reported as inactive: 0.
For CCAGCACUGUUUACCUUUUTT against GPR81, the median seed-adjusted z-score was inactive: 0.0718.
For GCAUAAUUAUGUUCAUCAUTT against SLC13A2, the median seed-adjusted z-score was inactive: 0.172.
In the case of CAUACAUCCUCAACUACUATT against CYP51A1, the median seed-adjusted z-score is reported as inactive: -0.242.
In the case of GGUUAGACCAAUUACACUATT against POGZ, the median seed-adjusted z-score is reported as inactive: -0.376.
With GGACAUGUGCGUCUACCGATT against HOXD13 the median seed-adjusted z-score was inactive: 0.116.
For CUUAGAAGAUUUUACGUUUTT against SCN3A, the median seed-adjusted z-score was inactive: -0.0556.
In the case of GAUUUCGGAUUAUCUAAUATT against PRKAA2, the median seed-adjusted z-score is reported as inactive: -0.194.
In the case of CAGUUACAAGUUAUCAAAATT against SGTB, the median seed-adjusted z-score is reported as inactive: -0.0165.
For CCUGGACCUCGUUCCCAAATT against ADPRHL1, the median seed-adjusted z-score was inactive: 0.
With GCUCAUUAUUGGGAUCAUUTT against SLC7A3 the median seed-adjusted z-score was inactive: -0.537.
In the case of GAUGAUACCUGCGACAGUATT against MRC1, the median seed-adjusted z-score is reported as inactive: 0.179.
With GCUGGAGACUGACACUUUATT against HHAT the median seed-adjusted z-score was inactive: 0.585.
In the case of CUAUUUCCCUAGAUUCUAUTT against HBD, the median seed-adjusted z-score is reported as inactive: 0.
For GACCUGAUGUGGAAGCAGATT against QDPR, the median seed-adjusted z-score was inactive: -0.734.
For CCGUAUGAAUGUAAGUAUUTT against ZNF441, the median seed-adjusted z-score was inactive: 0.578.
In the case of GAAUAGAUAUGUUGGAUAUTT against TPTE2, the median seed-adjusted z-score is reported as inactive: -0.0675.
